PubChem BioAssay AID1259308 | NCATS, 2017
The deposit covers about 59,000 reagents; below is an unselected part. Of all reagents, about 1,510 (2.6%) were called active. 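Calls use total luciferase alone and ignore viability, so some active siRNAs may act by altering cell number.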 The numbers tell different reagents against one gene apart. Not all columns of the deposit are shown.

- Aim: 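Knock-downs that increase output of a recombinant reporter protein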 (primary screen)
- System: human HEK293 embryonic kidney cells stably expressing firefly luciferase (HEK-CMV-Luc2-Hygro)
- Reagents: single siRNA against human genes, 0.8 pmol siRNA per well
- Timing: 72 h
- Measured: 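Luciferase light (ONE-Glo) measured on one replicate plate set and viability (CellTiter-Glo) on the other, scaled to a negative control siRNA, with robust z-scores and luciferase per cell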
- Direction: total luciferase, z-score and total luciferase, % of control: higher = more reporter protein produced; luciferase per cell, z-score: higher = more reporter output per viable cell
- Rule for the call: 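An siRNA counts as active if its total luciferase robust z-score exceeds 3; genes with two or more such siRNAs out of three were retested with fresh siRNAs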
- Meaning of the calls: active = raised luciferase; inactive = no rise

total luciferase, z-score | total luciferase, % of control | luciferase per cell, z-score | Call | gene symbol | reagent
-0.302 | 75.9 | -0.399 | inactive | ST8SIA6 (ST8 alpha-N-acetyl-neuraminide alpha-2,8-sialyltransferase 6) | 1
0.226 | 86.4 | 0.104 | inactive | ST8SIA6 (ST8 alpha-N-acetyl-neuraminide alpha-2,8-sialyltransferase 6) | 2
3.37 | 149 | 1.68 | active | ST8SIA6 (ST8 alpha-N-acetyl-neuraminide alpha-2,8-sialyltransferase 6) | 3
-0.0919 | 80.1 | 0.028 | inactive | COL15A1 (collagen type XV alpha 1 chain) | 1
0.0645 | 83.2 | -0.289 | inactive | COL15A1 (collagen type XV alpha 1 chain) | 2
1.49 | 111 | 2.35 | inactive | COL15A1 (collagen type XV alpha 1 chain) | 3
0.954 | 101 | 2.47 | inactive | TMEM132E-DT (TMEM132E divergent transcript) | 1
1.18 | 105 | 1.75 | inactive | TMEM132E-DT (TMEM132E divergent transcript) | 2
1.08 | 103 | 1.07 | inactive | TMEM132E-DT (TMEM132E divergent transcript) | 3
0.423 | 90.3 | -0.0369 | inactive | KAT2B (lysine acetyltransferase 2B) | 1
0.156 | 85 | -0.508 | inactive | KAT2B (lysine acetyltransferase 2B) | 2
1.05 | 103 | 0.501 | inactive | KAT2B (lysine acetyltransferase 2B) | 3
0.665 | 95.1 | 0.52 | inactive | NCF2 (neutrophil cytosolic factor 2) | 1
0.61 | 94 | 1.15 | inactive | NCF2 (neutrophil cytosolic factor 2) | 2
0.6 | 93.8 | 0.99 | inactive | NCF2 (neutrophil cytosolic factor 2) | 3
-0.741 | 67.2 | 0.0318 | inactive | TERF1P2 (TERF1 pseudogene 2) | 1
0.00353 | 82 | 0.599 | inactive | TERF1P2 (TERF1 pseudogene 2) | 2
-0.269 | 76.5 | -0.5 | inactive | TERF1P2 (TERF1 pseudogene 2) | 3
0.199 | 85.8 | 1.31 | inactive | GCKR (glucokinase regulator) | 1
0.00795 | 82 | -0.585 | inactive | GCKR (glucokinase regulator) | 2
1.56 | 113 | 1.32 | inactive | GCKR (glucokinase regulator) | 3
0.825 | 98.3 | 1.31 | inactive | NUP210P1 (nucleoporin 210 pseudogene 1) | 1
1.45 | 111 | 0.883 | inactive | NUP210P1 (nucleoporin 210 pseudogene 1) | 2
0.369 | 89.2 | 0.218 | inactive | NUP210P1 (nucleoporin 210 pseudogene 1) | 3
